According to patent CN109734804A:
These are yes or no findings as the source states them, for the method shown. Some entries that bind do so weakly or less than the wild type.

Columns and labels:
[1] = molecular target: T1, H3K64Ac片段 (组蛋白3第64位赖氨酸乙酰化修饰片段); assay: ELISA of crude periplasmic extracts from panned clones, positive if OD405 > 3x control
T1 sequence (peptide, acetyl-lysine, K(Ac), at position 7 of the printed peptide (Lys64 of histone H3)): CELLIRKLP

[2] = molecular target: T1, H3K64Ac片段 (组蛋白3第64位赖氨酸乙酰化修饰片段); assay: ELISA, antigen coated, purified nanobody, anti-HA detection, OD405
[3] = molecular target: H3K64片段 (组蛋白3第64位赖氨酸未修饰片段) (UniProt P68431); assay: ELISA of crude periplasmic extracts from panned clones, positive if OD405 > 3x control
[4] = molecular target: H3K64片段 (组蛋白3第64位赖氨酸未修饰片段) (UniProt P68431); assay: ELISA, antigen coated, purified nanobody, anti-HA detection, OD405

B1: H3K64Ac-1 (VHH)
VHH: ESGGGSVQAGGSLRLSCAASGYTYRRYCMGWFRQAPGKEREGVAAIDVDGSTSYANSVKGRFTISKDNAKNTLYLQMNSLKPEDTAMYYCGAGACDCSGGYCSIARYKYWGQGTQVTVSS
binding [1]: binds | binding [2]: binds

B2: H3K64Ac-77 (VHH)
VHH: ESGGGSVQAGGSLRLSCVGSGFDYSRSCLGWFRQAPGKEREGVAVIERDGRTKLAGSVHGRFTISKDNAKSTLYLQMNSLKPEDTAMYYCAARPWGYCSRDLNSARYTSWGQGTQVTVSS
binding [1]: binds | binding [2]: binds

B3: H3K64-3 (VHH)
VHH: ESGGGLVQPGGSLRLSCAASGFTFSSYGMGWVRQAPGKGLELVSSITSEGATYYADSVKGRFTISRDNAKNTVYLQLNSLKTEDMAMYYCAKDLGQISGQWEYNYWGQGTQVTVSS
binding [3]: binds | binding [4]: binds | binding [2]: binds

B4: H3K64Ac-85 (VHH)
VHH: ESGGGSVQAGESLRLSCTASGYIESYCMGWFRQAPGKEREGVAAIDVDGSTSYANSVKGRFTISKDNAKNTLYLQMNSLKPEDTAMYYCGAGACDCSGGYCSIARYKYWGQGTQVTVSS
binding [1]: binds | binding [2]: binds
